Results published in the supplement of paper PMC10011410.
Values are raw readings; no control value is given beside them.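 Values average three technical replicates, each on its own plate. On all plates, reagent-free control wells corrected for intrinsic cell fluorescence and DMSO-treated wells acted as vehicle controls. No hit or active cutoff is set for these live-cell readings.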

What was measured:
[1] = test system: U-2 OS; experiment: AUC of caspase 3/7-positive object count (AUC (object count x time)); higher = more apoptotic or dead cells
Method: (§1)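 Live-cell Incucyte imaging of U-2 OS cells with Caspase-3/7 Green and Cytotox Red reagents. Compounds were tested mostly at 5, 10 and 20 uM, and cells were imaged every 4 h for up to 60 h. Value is the area under the curve of positive object counts over time, per channel: green = caspase 3/7, red = membrane-compromised, overlap = both.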

[2] = test system: U-2 OS; experiment: AUC of Cytotox red (membrane-compromised) object count (AUC (object count x time)); higher = more apoptotic or dead cells
Method: as §1

Row | Structure (SMILES) | AUC of caspase 3/7-positive object count ([1]; 5 µM) | AUC of caspase 3/7-positive object count ([1]; 10 µM) | AUC of caspase 3/7-positive object count ([1]; 20 µM) | AUC of Cytotox red ([2]; 5 µM) | AUC of Cytotox red ([2]; 10 µM) | AUC of Cytotox red ([2]; 20 µM) | AUC of caspase 3/7-positive object count ([1]; 1.25 µM) | AUC of Cytotox red ([2]; 1.25 µM)
1 | O=C1CC(Nc2ccccc2)C(=O)N1Cc1ccccc1 (stereo not given) | 44.2 | 34.6 | 29.2 | 42.1 | 37 | 35 |  | 
2 | C[C@H]1CCC/C=C/[C@@H]2C[C@H](O)C[C@H]2[C@H](O)/C=C/C(=O)O1 | 523 | 533 | 590 | 319 | 365 | 430 |  | 
3 | COC1=C2C[C@@H](C)C[C@H](OC)[C@H](O)[C@@H](C)/C=C(\C)[C@H](OC(N)=O)[C@@H](OC)/C=C\C=C(/C)C(=O)NC(=CC1=O)C2=O | 589 | 599 | 613 | 363 | 270 | 181 |  | 
4 | O=C1O[C@H]2[C@@H]3OC(=O)c4cc(O)c(O)c(O)c4-c4c(O)c(O)c5oc(=O)c6c(c(O)c(O)c7oc(=O)c4c5c76)-c4c(cc(O)c(O)c4O)C(=O)OC[C@H]3OC(O)[C@@H]2OC(=O)c2cc(O)c(O)c(O)c2-c2c1cc(O)c(O)c2O (stereo not given in full) | 55.6 | 50 | 128 | 1.25 | -0.419 | 3.08 |  | 
5 | C=C(C)[C@H]1Cc2c(ccc3c2O[C@@H]2COc4cc(OC)c(OC)cc4[C@@H]2C3=O)O1 | 340 | 449 | 487 | 505 | 694 | 723 |  | 
6 | C[C@]12O[C@H](C[C@]1(O)CO)n1c3ccccc3c3c4c(c5c6ccccc6n2c5c31)CNC4=O | 767 | 852 | 1490 | 548 | 415 | 53 |  | 
7 | O=C1C(Cl)=C(NCCN2CCOCC2)C(=O)c2ncccc21 | 546 | 567 | 634 | 419 | 474 | 600 |  | 
8 | CC1(C)[C@@H](O[C@H]2O[C@H](C(=O)O)[C@@H](O)[C@H](O)[C@H]2O[C@@H]2O[C@H](C(=O)O)[C@@H](O)[C@H](O)[C@H]2O)CC[C@]2(C)[C@H]3C(=O)C=C4[C@@H]5C[C@@](C)(C(=O)O)CC[C@]5(C)CC[C@@]4(C)[C@]3(C)CC[C@@H]12.N | 22.2 | 24.3 | 7.7 | 24.8 | 27.5 | 16.2 |  | 
9 | CC(=O)O[C@H]1C(=O)[C@@]2(C)[C@H]([C@H](OC(=O)c3ccccc3)[C@]3(O)C[C@H](OC(=O)[C@H](O)[C@@H](NC(=O)c4ccccc4)c4ccccc4)C(C)=C1C3(C)C)[C@]1(OC(C)=O)CO[C@@H]1C[C@@H]2O | 361 |  | 217 | 409 |  | 291 | 417 | 495
10 | O=C(O)CSc1cc(NS(=O)(=O)c2ccc(Br)cc2)c2ccccc2c1O | 49 | 77.9 | 802 | 48.5 | 49.8 | 566 |  | 
11 | O.O=P1(N(CCCl)CCCl)NCCCO1 (stereo not given) | 23.2 | 24.4 | 21 | 52.6 | 51.7 | 42.7 |  | 
12 | CC[C@H](C)[C@@H]1NC(=O)CNC(=O)[C@@H]2Cc3c([nH]c4cc(O)ccc34)S(=O)C[C@H](NC(=O)CNC1=O)C(=O)N[C@@H](CC(=O)O)C(=O)N1C[C@H](O)C[C@H]1C(=O)N[C@@H]([C@@H](C)[C@@H](O)CO)C(=O)N2 (stereo not given in full) | 407 | 504 | 444 | 307 | 408 | 437 |  | 
13 | CC[C@]1(O)C[C@@H]2CN(CCc3c([nH]c4ccccc34)[C@@](C(=O)OC)(c3cc4c(cc3OC)N(C)[C@H]3[C@@](O)(C(=O)OC)[C@H](OC(C)=O)[C@]5(CC)C=CCN6CC[C@]43[C@@H]65)C2)C1 | 585 | 569 | 642 | 481 | 534 | 686 |  | 
14 | COc1cc2ncnc(Nc3ccc(F)c(Cl)c3)c2cc1NC(=O)/C=C/CN1CCCCC1 | 253 | 593 | 751 | 206 | 607 | 1150 |  | 
15 | COC(=O)[C@@]12OC[C@]34[C@H]([C@@H](O)[C@@H]1O)[C@@]1(C)CC(=O)C(O)=C(C)[C@@H]1C[C@H]3OC(=O)[C@H](OC(=O)CC(C)C)[C@@H]24 | 904 | 994 | 1190 | 668 | 954 | 1220 |  | 
16 | CN(N=O)C(=O)N[C@@H]1[C@@H](O)[C@H](O)[C@@H](CO)O[C@@H]1O | 18.9 | 15.3 | 27.7 | 40.4 | 36.3 | 60.6 |  | 
17 | CC(C)C[C@H](NC(=O)[C@H](Cc1ccccc1)NC(=O)c1cnccn1)B(O)O | 1290 | 1180 | 1070 | 972 | 957 | 847 |  | 
18 | CCC(=O)N1CCN(c2ccc(-n3c(=O)ccc4cnc5ccc(-c6cnc7ccccc7c6)cc5c43)cc2C(F)(F)F)CC1 | 99.2 | 81 | 156 | 53 | 44.9 | 84.1 |  | 
19 | O=C1C=CC(=O)N1c1ccccc1 | 461 | 822 | 1090 | 1370 | 1780 | 1500 |  | 

Row | Structure (SMILES) | AUC of caspase 3/7-positive object count ([1]; 5 µM) | AUC of caspase 3/7-positive object count ([1]; 10 µM) | AUC of caspase 3/7-positive object count ([1]; 20 µM) | AUC of Cytotox red ([2]; 5 µM) | AUC of Cytotox red ([2]; 10 µM) | AUC of Cytotox red ([2]; 20 µM) | AUC of caspase 3/7-positive object count ([1]; 1.25 µM) | AUC of Cytotox red ([2]; 1.25 µM)
20 | CN1C(=O)[C@@]23C[C@]4([C@]56C[C@@]78SS[C@@](CO)(C(=O)N7[C@H]5Nc5ccccc56)N(C)C8=O)c5ccccc5N[C@@H]4N2C(=O)[C@]1(CO)SS3 | 909 | 771 | 839 | 1190 | 1440 | 1610 |  | 
21 | C/C(=C\c1csc(C)n1)[C@@H]1C[C@@H]2O[C@]2(C)CCC[C@H](C)[C@H](O)[C@@H](C)C(=O)C(C)(C)[C@@H](O)CC(=O)O1 | 266 | 285 | 285 | 226 | 256 | 300 |  | 
22 | CC1(C)CC[C@]2(C(=O)n3ccnc3)CC[C@]3(C)[C@H](C(=O)C=C4[C@@]5(C)C=C(C#N)C(=O)C(C)(C)[C@@H]5CC[C@]43C)[C@@H]2C1 | 112 | 311 | 632 | 149 | 355 | 934 |  | 
23 | O=C1CCC(=O)N1c1ccc(O)cc1 | 45.7 | 240 | 56.7 | 42.1 | 263 | 53.8 |  | 
24 | C[C@@]1(CO)[C@H](O)CC[C@@]2(C)[C@H]1CC[C@H]1C[C@@H]3C[C@@]12CC[C@]3(O)CO | 61 | 60.4 | 87.8 | 23.9 | 31.4 | 39.1 |  | 
25 | CCN(CC)Cc1ccc2cc(COC(=O)Nc3ccc(C(=O)NO)cc3)ccc2c1.Cl | 846 | 1130 | 1060 | 897 | 1170 | 1290 |  | 
26 | O=C(O)CCCc1ccc(N(CCCl)CCCl)cc1 | 42.7 | 33.6 | 106 | 59.2 | 55 | 158 |  | 
27 | O=C(NNS(=O)(=O)c1ccccc1)c1cc(-c2ccnnc2)ccc1F | 48.7 | 50.9 | 46 | 34.4 | 33.4 | 23 |  | 
28 | CC(C)(C)C(=O)OCOc1cccc2ccccc12 | 21.2 | 27.1 | 93.6 | 31.2 | 38.6 | 125 |  | 
29 | Oc1ccc2ccccc2c1SSc1c(O)ccc2ccccc12 | 35 | 282 | 396 | 41.4 | 264 | 327 |  | 
30 | CCOc1ccccc1-n1c(C(C)N2CCN(C(=O)COc3ccc(Cl)cc3)CC2)nc2ccccc2c1=O (stereo not given) | 113 | 223 | 127 | 112 | 282 | 120 |  | 
31 | O=NN(CCCl)C(=O)NC1CCCCC1 | 13.9 | 28.5 | 25.4 | 44.3 | 55.8 | 66 |  | 
32 | O=S1(=O)CCc2ccccc21 | 50 | 59.5 | 60.2 | 37.4 | 40.8 | 27.5 |  | 
33 | C[C@@H]1O[C@@H](O[C@H]2[C@H](O[C@H]3CC[C@@]4(C)[C@@H](CC[C@]5(C)[C@@H]4CC=C4[C@@H]6CC(C)(C)CC[C@]6(C(=O)O)CC[C@]45C)[C@]3(C)CO)OC[C@H](O[C@@H]3O[C@H](CO)[C@@H](O)[C@H](O)[C@H]3O)[C@@H]2O)[C@H](O)[C@H](O)[C@H]1O | 128 | 136 | 122 | 2180 | 2090 | 1770 |  | 
34 | Cl.Nc1ccc(O)c2ccccc12 |  | 58.8 |  | 51.2 | 51.9 | 619 |  | 
35 | C[C@@H]1C[C@@H]([C@H](O)CC2CC(=O)NC(=O)C2)C(=O)[C@@H](C)C1 | 56.3 | 95.9 | 207 | 97.3 | 131 | 193 |  | 
36 | CCCCc1c(-c2ccc(OC)cc2)[nH]c2nccnc12 | 80 | 67.6 | 132 | 62.1 | 76.9 | 483 |  | 
37 | O=C(c1ccc(/C=C/c2n[nH]c3ccccc23)cc1)N1CCNCC1 | 35.3 | 115 | 259 | 63.3 | 153 | 344 |  | 

Ten entries out of the list, arranged by count of non-hydrogen atoms, low to high:
Row | Structure (SMILES) | AUC of caspase 3/7-positive object count ([1]; 5 µM) | AUC of caspase 3/7-positive object count ([1]; 10 µM) | AUC of caspase 3/7-positive object count ([1]; 20 µM) | AUC of Cytotox red ([2]; 5 µM) | AUC of Cytotox red ([2]; 10 µM) | AUC of Cytotox red ([2]; 20 µM) | AUC of caspase 3/7-positive object count ([1]; 1.25 µM) | AUC of Cytotox red ([2]; 1.25 µM)
31 | O=NN(CCCl)C(=O)NC1CCCCC1 | 13.9 | 28.5 | 25.4 | 44.3 | 55.8 | 66 |  | 
26 | O=C(O)CCCc1ccc(N(CCCl)CCCl)cc1 | 42.7 | 33.6 | 106 | 59.2 | 55 | 158 |  | 
35 | C[C@@H]1C[C@@H]([C@H](O)CC2CC(=O)NC(=O)C2)C(=O)[C@@H](C)C1 | 56.3 | 95.9 | 207 | 97.3 | 131 | 193 |  | 
1 | O=C1CC(Nc2ccccc2)C(=O)N1Cc1ccccc1 (stereo not given) | 44.2 | 34.6 | 29.2 | 42.1 | 37 | 35 |  | 
7 | O=C1C(Cl)=C(NCCN2CCOCC2)C(=O)c2ncccc21 | 546 | 567 | 634 | 419 | 474 | 600 |  | 
37 | O=C(c1ccc(/C=C/c2n[nH]c3ccccc23)cc1)N1CCNCC1 | 35.3 | 115 | 259 | 63.3 | 153 | 344 |  | 
27 | O=C(NNS(=O)(=O)c1ccccc1)c1cc(-c2ccnnc2)ccc1F | 48.7 | 50.9 | 46 | 34.4 | 33.4 | 23 |  | 
6 | C[C@]12O[C@H](C[C@]1(O)CO)n1c3ccccc3c3c4c(c5c6ccccc6n2c5c31)CNC4=O | 767 | 852 | 1490 | 548 | 415 | 53 |  | 
3 | COC1=C2C[C@@H](C)C[C@H](OC)[C@H](O)[C@@H](C)/C=C(\C)[C@H](OC(N)=O)[C@@H](OC)/C=C\C=C(/C)C(=O)NC(=CC1=O)C2=O | 589 | 599 | 613 | 363 | 270 | 181 |  | 
33 | C[C@@H]1O[C@@H](O[C@H]2[C@H](O[C@H]3CC[C@@]4(C)[C@@H](CC[C@]5(C)[C@@H]4CC=C4[C@@H]6CC(C)(C)CC[C@]6(C(=O)O)CC[C@]45C)[C@]3(C)CO)OC[C@H](O[C@@H]3O[C@H](CO)[C@@H](O)[C@H](O)[C@H]3O)[C@@H]2O)[C@H](O)[C@H](O)[C@H]1O | 128 | 136 | 122 | 2180 | 2090 | 1770 |  | 
